No constants are given. Whether binding was seen depends on the method and setting. In cells and extracts the contact can be indirect. A result given as binding can be weak or reduced; the word gives no strength.
Biological target: Flag-tagged C. pneumoniae Cpn0677 (Cpn0677-FT) (C. pneumoniae) (UniProt Q9Z7M7)
Assay: co-IP; Flag-tagged chlamydial protein transiently expressed in HeLa for 24 hrs; lysis in NP40 buffer (50 mM Tris pH7.5, 150 mM NaCl, 1 mM EDTA, 0.5% NP-40); Anti-Flag M2 Affinity gel overnight at 4°C; eluted with 3X Flag peptide; immunoblot for endogenous N-WASP and ARPC1

Sequences of proteins named here, by UniProt entry; tags and fusion partners are left off. A change or cut given only in a name is not applied to a line headed by its entry.
UniProt Q9Z7M7: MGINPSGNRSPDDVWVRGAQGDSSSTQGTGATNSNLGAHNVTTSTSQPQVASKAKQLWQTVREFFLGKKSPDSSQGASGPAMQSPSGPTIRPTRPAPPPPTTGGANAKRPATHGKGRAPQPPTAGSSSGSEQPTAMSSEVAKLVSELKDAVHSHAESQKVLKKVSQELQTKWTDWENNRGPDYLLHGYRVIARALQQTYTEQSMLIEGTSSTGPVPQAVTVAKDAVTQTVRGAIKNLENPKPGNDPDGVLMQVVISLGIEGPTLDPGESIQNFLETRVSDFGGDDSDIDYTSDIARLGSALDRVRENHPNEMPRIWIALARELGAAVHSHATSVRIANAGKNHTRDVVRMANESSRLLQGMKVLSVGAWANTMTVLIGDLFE
UniProt O00401: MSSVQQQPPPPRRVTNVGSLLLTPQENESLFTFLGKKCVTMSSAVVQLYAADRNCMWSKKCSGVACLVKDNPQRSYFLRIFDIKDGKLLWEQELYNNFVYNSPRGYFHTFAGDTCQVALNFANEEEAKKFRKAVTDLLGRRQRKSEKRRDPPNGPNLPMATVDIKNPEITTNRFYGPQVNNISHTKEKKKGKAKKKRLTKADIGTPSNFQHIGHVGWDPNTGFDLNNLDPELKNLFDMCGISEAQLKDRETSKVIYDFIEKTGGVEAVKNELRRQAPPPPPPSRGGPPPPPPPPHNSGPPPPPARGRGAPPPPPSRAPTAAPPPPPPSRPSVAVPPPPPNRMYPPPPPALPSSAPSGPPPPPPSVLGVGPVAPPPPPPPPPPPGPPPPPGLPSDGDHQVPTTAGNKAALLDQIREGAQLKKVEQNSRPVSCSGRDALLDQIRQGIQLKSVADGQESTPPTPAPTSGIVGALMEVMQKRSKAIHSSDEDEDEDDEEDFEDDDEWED

Substance: Neural-Wiskott Aldrich Syndrome Protein (N-WASP) (from UniProt O00401 1-505)
- binding: binds

— paper PMC10360934
